Results taken from paper PMC10201434, “The DNA replication initiation protein DnaD recognises a specific strand of the Bacillus subtilis chromosome origin” (Nucleic Acids Research, 2021).

Chains of the proteins cited; added tags and fusions are not shown. Lines headed by an entry give the natural chain unless they say otherwise; changes in a name come on top.
UniProt P39787: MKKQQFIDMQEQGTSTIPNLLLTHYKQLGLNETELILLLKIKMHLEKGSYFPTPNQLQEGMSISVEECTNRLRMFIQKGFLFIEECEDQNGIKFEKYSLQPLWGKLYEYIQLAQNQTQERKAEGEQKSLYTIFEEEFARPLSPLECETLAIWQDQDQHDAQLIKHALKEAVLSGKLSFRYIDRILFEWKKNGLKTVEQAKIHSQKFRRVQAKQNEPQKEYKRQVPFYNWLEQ

Key:
[1] = molecular target: DnaD (Bacillus subtilis 168CA) (UniProt P39787); test: fluorescence polarisation; conditions: FP: 10 mM HEPES-KOH pH 7.5, 1 mM Mg acetate, 100 mM K glutamate, 20 C, 1.875 nM DNA, DnaD up to 500 nM, 10 min, recombinant protein, residues 1-232, protein details: His14-SUMO tag removed
[2] = molecular target: DnaD K221Bpa (Bacillus subtilis 168CA) (UniProt P39787); test: Bpa photo-crosslinking; conditions: UV, recombinant protein, residues 1-232, protein details: His14-SUMO tag removed
[3] = label: fluorescein 5', single-stranded DNA
[4] = label: Cy5 5', single-stranded DNA

TTATTATTATTTTTATTA [polyT with DRE adenines (oCW1691)]
binding result ([1]; similar to polyT18, label: fluorescein 5', single-stranded DNA): binds more weakly

TCACTCAAAGGCGGTAATAC (double strand) [dsDNA (oCW1034:oCW1124)]
binding result ([1]; label: fluorescein 5' on strand 2): binds more weakly

CTACTATTACTTCTACTA (double strand) [DRE dsDNA (oSP1132:oCW1040)]
binding result ([2]; label: Cy5 5' on strand 1): no binding

AAAAAAAAAAAAAAAAAAAAAAAAAAAAAAAAAAAAAAAA [polyA(40) (oCW853)]
binding result [1, 3]: binds more weakly

AAAAAAAAAAAAAAAAAA [polyA control (oSP1137)]
binding result [2, 4]: binds more weakly

GATGATAATGAAGATGAT [DnaA trios (oSP1133)]
binding result [2, 4]: binds more weakly

AAAAAAAAAAAAAAAAAA [polyA18 (oCW1090)]
binding result [1, 3]: binds more weakly

CACCACCCCCCCCACCAC [polyC with two AnnA (oCW1216)]
binding result [1, 3]: no binding

CTTCTTTTTCTTCTTCTT [polyT with DRE cytosines (oCW1054)]
binding result ([1]; weaker than DRE, stronger than polyT18, label: fluorescein 5', single-stranded DNA): binds more weakly

TTTTTTTTTTTTTTTTTT [polyT control (oSP1135)]
binding result [2, 4]: binds more weakly

CTCCTCCTCCTCCTCCTC [polyC with T every third base (oCW1139)]
binding result [1, 3]: binds

CTCCTCCCCCCCCCCCCC [single TnnT (oCW1164)]
binding result [1, 3]: no binding

ATAATAAAAAAAATAATA [polyA with two TnnT (oCW1129)]
binding result [1, 3]: binds

CTACTATTACTTCAACAA [DRE mutant TnnT to AnnA (oCW1247)]
binding result [1, 3]: binds more weakly

CTACTATTACTTCTACTA [DRE (oSP1132)]
binding result [2, 4]: binds

CCCCCCCCCCCCCTCCTC [single TnnT (oCW1165)]
binding result [1, 3]: no binding

CCCCCCCTCCTCCCCCCC [single TnnT (oCW1140)]
binding result [1, 3]: no binding

No signal at the amounts used counts as a negative. At least one verdict rests on a figure or table, not on a statement of the authors. A weaker result is weaker than the reference pair of the same experiment. Construct, isoform or probe ends are uncertain for at least one entry.
